Record: PubChem BioAssay AID1671195 (Yale University, 2021)
In all, the deposit lists about 22,000 reagents; below is a part drawn at random. About 1,510 of all reagents (6.9%) count as active. 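Active includes knockdowns raising or lowering LDL uptake; positive z-scores mean more uptake, negative mean less.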

- Assay: 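Knockdowns that increase or decrease uptake of fluorescent LDL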 (primary screen)
- Cell system: human Huh7 hepatoma cells
- Reagent: siRNA pool against human genes, 18 nM
- Time to read-out: about 2 to 2.5 days of knockdown, then 8 h LDL uptake
- Treatment: DiI-labelled LDL at 30 µg/ml for 8 h, in lipoprotein-deficient serum medium
- Read-out: 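Fluorescent LDL signal imaged in cells, scaled to the plate median, robust z-score for each replicate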
- Direction: robust z-score: higher = more LDL uptake after knockdown
- Call rule: 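a gene counts as active if at least two replicate z-scores exceed ±2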

no.	gene knocked down	robust z-score, replicate 1	robust z-score, replicate 2	robust z-score, replicate 3	call
1	SGSH	-0.595	0.543	-0.233	inactive
2	EXTL1	-0.0822	-0.0451	1.09	inactive
3	SERPINB5	-1.49	0.342	-1.5	inactive
4	OCRL	-0.779	-0.0127	-0.327	inactive
5	HYOU1	-0.564	-0.557	-0.804	inactive
6	HIGD1B	3.55	3.15	-0.142	active
7	FERRY3	-0.285	-1.21	0.311	inactive
8	LOC389660 (retired record)	-1.64	-1.68	-1.39	inactive
9	LOC400968 (retired record)	0.391	0.62	0.67	inactive
10	SIPA1L2	-0.673	-0.0164	-0.388	inactive
11	KCNA5	-0.284	0.0655	-0.649	inactive
12	JAK3	1.8	1.76	1.61	inactive
13	CMPK2	-0.486	-0.0118	-1.03	inactive
14	LOC441577 (retired record)	-1.05	-0.39	-0.639	inactive
15	MED30	-1.6	-0.983	-1.83	inactive
16	STBD1	-0.956	1.14	-0.0809	inactive
17	LOC441504 (retired record)	-0.209	0.187	-0.0482	inactive
18	EFNA1	-0.58	0.22	0.198	inactive
19	RSPH9	1.05	0.821	0.955	inactive
20	LINC00311	0.553	0.0706	0.639	inactive
21	SLC66A1	1.9	1.46	1.74	inactive
22	SARM1	-0.919	0.151	-0.376	inactive
23	SLAIN1	-0.725	-0.878	-0.657	inactive
24	RPL29P19	-1.46	-1.55	-1.75	inactive
25	ROMO1	-0.0461	0.282	-0.111	inactive
26	TLK2	0.105	-0.419	0.107	inactive
27	GTF2H5	-1.46	-0.827	-1.03	inactive
28	RHBDF2	-0.815	-0.968	-0.962	inactive
29	COL24A1	2.61	2.78	3.14	active
30	LOC442434 (retired record)	-0.128	-0.00579	-0.109	inactive
31	EIF4A3	-0.854	-0.593	-0.347	inactive
32	LCN8	-0.713	-1.32	0.507	inactive
33	MYL5	1.51	2.22	0.113	inactive
34	DDIAS	-0.44	-0.592	-0.316	inactive
35	CEP89	0.461	-0.329	0.518	inactive
36	MARCHF9	0.747	1.09	0.00166	inactive
37	CLPB	-1.1	-1.25	-0.654	inactive
38	RASGRP4	-0.816	0.665	0.195	inactive
39	BCAR1	-2.52	-2.12	-1.85	active
40	LOC387654 (retired record)	0.16	-0.132	-0.103	inactive
41	CXCL1	0.792	1.31	0.646	inactive

Ordered by “robust z-score, replicate 1” (high to low): some entries from above
gene knocked down	robust z-score, replicate 1	robust z-score, replicate 2	robust z-score, replicate 3	call
JAK3	1.8	1.76	1.61	inactive
KCNA5	-0.284	0.0655	-0.649	inactive
CMPK2	-0.486	-0.0118	-1.03	inactive
STBD1	-0.956	1.14	-0.0809	inactive
LOC441577 (retired record)	-1.05	-0.39	-0.639	inactive
MED30	-1.6	-0.983	-1.83	inactive

More results follow:
no.	gene knocked down	robust z-score, replicate 1	robust z-score, replicate 2	robust z-score, replicate 3	call
42	LOC392584 (retired record)	-1.27	-0.718	-0.858	inactive
43	FCGRT	-1.73	-2.28	-1.82	inactive
44	CNN1	-0.559	0.0652	-0.203	inactive
45	CRYBA1	-0.232	0.359	-1.5	inactive
46	FTH1P19	0.837	1.43	1.02	inactive
47	PLEKHM1P1	-0.986	-0.773	-0.861	inactive
48	ARFGEF3	0.999	0.652	0.27	inactive
49	ABCE1	-0.791	-0.992	-0.828	inactive
50	COBL	0.885	0.252	1.76	inactive
51	DSG1	-0.512	-0.694	-0.583	inactive
52	EIF2B4	-0.264	0.179	0.341	inactive
53	SGCD	0.712	-0.361	-1.08	inactive
54	PSMC1P4	-0.144	-1.04	-0.435	inactive
55	LOC388716 (retired record)	-0.104	0.0485	-0.216	inactive
56	PRODH2	-1.56	-0.678	-1.6	inactive
57	FAM86EP	-1.12	-0.777	-1.14	inactive
58	ANP32D	-0.488	-0.502	0.26	inactive
59	SUSD6	1.23	-0.481	-0.364	inactive
60	XPA	-0.309	-0.0913	0.276	inactive
61	SEC11B	2.17	2.62	2.28	active
62	CEP19	-0.196	0.353	0.0511	inactive
63	ZNF551	-0.0416	0.203	0.0254	inactive
64	LOC389707 (retired record)	-0.41	-0.276	-0.404	inactive
65	C11orf24	-0.626	-1.75	-0.557	inactive
66	IRGQ	0.165	-0.549	-0.333	inactive
67	OR10J5	0.981	0.25	-0.0897	inactive
68	AXL	-0.679	-0.932	-0.888	inactive
